Data taken from publication PMC10654321.
The exact form of at least one protein or probe is not confirmed.

Test system: ZmRL6 (1R-MYB, MYB-related) (Zea mays)
Experiment: EMSA
Conditions: unlabeled competitor reduced binding; EMSA: 20 ng protein, 5 ng biotin probe in 20 µl; 10 mM Tris pH 7.5, 50 mM KCl, 1 mM DTT, 2.5% glycerol, 5 mM MgCl2, 0.05 mg/ml poly(dI-dC), 0.05% NP-40; 25 °C, 20 min; protein translated in vitro; protein details: HaloTag (pFN19K, N-terminal, HaloTag-ZmRL6); label: biotin

Sequence	binding result
CGTTACCAAACTACCTAATTCCTTACCAAAC (double strand) [TTACCAAAC probe]	binds
TGCAACGGTCTTCACCAACCCAACGGTCCA (double strand) [AACGGT (ACCGTT) probe]	binds
TTCGACAGCCCGAGAATCAG (double strand) [AGCCCGAG probe]	binds
